Some of the results follow.
Experiments:
Experiment in all cases: log2 fold change, soluble protein after heating vs DMSO (PISA); higher = thermal stabilisation; K562 lysate, 10 uM; active = over 0.2 and 3.5 SD of the protein, either way, in both replicates (recomputed)
[1] = compound: CN1CC[C@H](c2c(O)cc(O)c3c(=O)cc(-c4ccccc4Cl)oc23)[C@H](O)C1 [alvocidib]
How it was run: (§1)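 K562 pellets were dounce-homogenised in PBS pH 7.4 with 1 mM MgCl2, and the crude extract at 1 mg/mL protein was treated with 10 μM compound for 30 min. Aliquots were heated for 3 min across 48°C-58°C, pooled, and brought to 0.5% NP-40 at 4°C; soluble protein was the supernatant after 21,000xg for 90 min. Soluble protein was quantified by TMTpro 16plex LC-MS/MS with channel sums equalised, and reported as log2 fold change in thermal stability against DMSO controls, with values from duplicates.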

Chains of the proteins cited; added tags and fusions are not shown. Lines headed by an entry give the natural chain unless they say otherwise; changes in a name come on top.
UniProt Q14203, whole entry, looked up: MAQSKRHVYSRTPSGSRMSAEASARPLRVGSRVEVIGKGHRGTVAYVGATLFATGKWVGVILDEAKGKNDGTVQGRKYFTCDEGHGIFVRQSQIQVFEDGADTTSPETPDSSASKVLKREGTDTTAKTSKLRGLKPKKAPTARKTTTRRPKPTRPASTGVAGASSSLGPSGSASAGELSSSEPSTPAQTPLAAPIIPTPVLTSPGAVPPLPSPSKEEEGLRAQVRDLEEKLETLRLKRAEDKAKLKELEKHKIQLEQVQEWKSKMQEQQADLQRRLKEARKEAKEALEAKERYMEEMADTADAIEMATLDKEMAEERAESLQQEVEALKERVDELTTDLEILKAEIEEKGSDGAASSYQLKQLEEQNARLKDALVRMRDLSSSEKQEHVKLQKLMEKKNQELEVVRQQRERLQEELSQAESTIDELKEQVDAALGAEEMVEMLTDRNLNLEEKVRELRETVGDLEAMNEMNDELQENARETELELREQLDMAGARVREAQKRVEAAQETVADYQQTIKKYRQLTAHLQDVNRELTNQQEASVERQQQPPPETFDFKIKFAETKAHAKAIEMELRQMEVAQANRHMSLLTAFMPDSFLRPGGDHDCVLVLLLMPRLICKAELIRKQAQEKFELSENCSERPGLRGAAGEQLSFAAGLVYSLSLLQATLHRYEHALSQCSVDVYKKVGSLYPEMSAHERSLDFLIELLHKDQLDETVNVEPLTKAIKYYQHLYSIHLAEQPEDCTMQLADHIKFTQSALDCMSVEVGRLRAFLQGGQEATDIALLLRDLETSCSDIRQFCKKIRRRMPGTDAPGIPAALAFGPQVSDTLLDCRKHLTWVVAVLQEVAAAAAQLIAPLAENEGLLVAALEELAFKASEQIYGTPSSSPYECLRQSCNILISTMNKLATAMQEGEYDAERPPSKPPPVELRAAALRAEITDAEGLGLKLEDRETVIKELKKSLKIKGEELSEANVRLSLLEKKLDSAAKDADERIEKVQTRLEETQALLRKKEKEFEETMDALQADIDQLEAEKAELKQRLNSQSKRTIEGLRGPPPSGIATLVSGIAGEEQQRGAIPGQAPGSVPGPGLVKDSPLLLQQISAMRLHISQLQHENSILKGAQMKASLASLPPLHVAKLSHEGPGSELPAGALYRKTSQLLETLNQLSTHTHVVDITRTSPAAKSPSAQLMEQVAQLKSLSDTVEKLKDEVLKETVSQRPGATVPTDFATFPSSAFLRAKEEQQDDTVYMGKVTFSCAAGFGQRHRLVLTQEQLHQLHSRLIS
UniProt Q08345: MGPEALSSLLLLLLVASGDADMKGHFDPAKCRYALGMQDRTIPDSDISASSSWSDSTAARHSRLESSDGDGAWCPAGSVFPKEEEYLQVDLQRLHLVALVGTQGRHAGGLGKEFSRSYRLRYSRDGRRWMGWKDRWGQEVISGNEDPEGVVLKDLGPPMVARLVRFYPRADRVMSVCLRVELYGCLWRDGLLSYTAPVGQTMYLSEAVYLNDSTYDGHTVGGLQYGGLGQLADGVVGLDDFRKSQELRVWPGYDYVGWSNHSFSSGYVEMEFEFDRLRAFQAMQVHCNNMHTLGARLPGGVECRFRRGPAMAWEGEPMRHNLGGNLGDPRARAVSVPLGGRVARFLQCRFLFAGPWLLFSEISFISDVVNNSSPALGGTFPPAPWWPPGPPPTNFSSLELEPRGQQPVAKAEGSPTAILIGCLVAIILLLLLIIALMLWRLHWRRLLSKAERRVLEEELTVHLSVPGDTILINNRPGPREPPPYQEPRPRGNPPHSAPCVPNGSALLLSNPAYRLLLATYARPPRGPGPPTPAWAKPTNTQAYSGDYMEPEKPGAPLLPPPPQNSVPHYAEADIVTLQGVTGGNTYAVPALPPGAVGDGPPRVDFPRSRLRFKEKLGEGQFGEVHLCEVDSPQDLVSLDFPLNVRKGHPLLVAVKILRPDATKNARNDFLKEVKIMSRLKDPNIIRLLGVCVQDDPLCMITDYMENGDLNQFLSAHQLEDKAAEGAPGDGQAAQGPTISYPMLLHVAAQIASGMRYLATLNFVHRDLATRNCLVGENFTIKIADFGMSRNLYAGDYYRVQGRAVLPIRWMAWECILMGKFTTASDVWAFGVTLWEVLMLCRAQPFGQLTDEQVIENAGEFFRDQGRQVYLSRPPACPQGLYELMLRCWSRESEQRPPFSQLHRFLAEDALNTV
UniProt Q96JK2, whole entry, looked up: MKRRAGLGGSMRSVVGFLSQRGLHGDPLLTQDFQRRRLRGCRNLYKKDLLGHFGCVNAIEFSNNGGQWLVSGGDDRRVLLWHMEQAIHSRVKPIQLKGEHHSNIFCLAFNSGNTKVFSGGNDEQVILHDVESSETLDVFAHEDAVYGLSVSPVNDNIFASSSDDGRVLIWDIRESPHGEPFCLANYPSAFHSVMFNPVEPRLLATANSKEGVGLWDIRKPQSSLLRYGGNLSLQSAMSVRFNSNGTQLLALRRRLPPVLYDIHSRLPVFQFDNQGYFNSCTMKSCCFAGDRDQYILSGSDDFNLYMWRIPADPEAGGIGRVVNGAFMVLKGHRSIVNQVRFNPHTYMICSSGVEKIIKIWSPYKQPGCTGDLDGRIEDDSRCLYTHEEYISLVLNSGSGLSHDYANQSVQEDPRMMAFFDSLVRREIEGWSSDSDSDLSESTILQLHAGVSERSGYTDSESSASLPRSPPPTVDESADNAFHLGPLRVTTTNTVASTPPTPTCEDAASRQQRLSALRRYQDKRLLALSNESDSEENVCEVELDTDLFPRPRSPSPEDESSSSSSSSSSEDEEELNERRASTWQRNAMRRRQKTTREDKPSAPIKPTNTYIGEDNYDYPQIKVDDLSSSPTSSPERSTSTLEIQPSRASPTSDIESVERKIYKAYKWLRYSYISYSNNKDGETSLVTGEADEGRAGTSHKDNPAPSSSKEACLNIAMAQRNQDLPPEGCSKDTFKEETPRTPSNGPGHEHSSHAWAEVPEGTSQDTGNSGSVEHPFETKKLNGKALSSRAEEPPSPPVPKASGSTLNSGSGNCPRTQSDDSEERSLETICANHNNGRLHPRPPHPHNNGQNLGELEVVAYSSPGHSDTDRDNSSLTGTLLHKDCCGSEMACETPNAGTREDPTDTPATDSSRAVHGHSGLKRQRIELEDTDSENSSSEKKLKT
UniProt Q5H9U9: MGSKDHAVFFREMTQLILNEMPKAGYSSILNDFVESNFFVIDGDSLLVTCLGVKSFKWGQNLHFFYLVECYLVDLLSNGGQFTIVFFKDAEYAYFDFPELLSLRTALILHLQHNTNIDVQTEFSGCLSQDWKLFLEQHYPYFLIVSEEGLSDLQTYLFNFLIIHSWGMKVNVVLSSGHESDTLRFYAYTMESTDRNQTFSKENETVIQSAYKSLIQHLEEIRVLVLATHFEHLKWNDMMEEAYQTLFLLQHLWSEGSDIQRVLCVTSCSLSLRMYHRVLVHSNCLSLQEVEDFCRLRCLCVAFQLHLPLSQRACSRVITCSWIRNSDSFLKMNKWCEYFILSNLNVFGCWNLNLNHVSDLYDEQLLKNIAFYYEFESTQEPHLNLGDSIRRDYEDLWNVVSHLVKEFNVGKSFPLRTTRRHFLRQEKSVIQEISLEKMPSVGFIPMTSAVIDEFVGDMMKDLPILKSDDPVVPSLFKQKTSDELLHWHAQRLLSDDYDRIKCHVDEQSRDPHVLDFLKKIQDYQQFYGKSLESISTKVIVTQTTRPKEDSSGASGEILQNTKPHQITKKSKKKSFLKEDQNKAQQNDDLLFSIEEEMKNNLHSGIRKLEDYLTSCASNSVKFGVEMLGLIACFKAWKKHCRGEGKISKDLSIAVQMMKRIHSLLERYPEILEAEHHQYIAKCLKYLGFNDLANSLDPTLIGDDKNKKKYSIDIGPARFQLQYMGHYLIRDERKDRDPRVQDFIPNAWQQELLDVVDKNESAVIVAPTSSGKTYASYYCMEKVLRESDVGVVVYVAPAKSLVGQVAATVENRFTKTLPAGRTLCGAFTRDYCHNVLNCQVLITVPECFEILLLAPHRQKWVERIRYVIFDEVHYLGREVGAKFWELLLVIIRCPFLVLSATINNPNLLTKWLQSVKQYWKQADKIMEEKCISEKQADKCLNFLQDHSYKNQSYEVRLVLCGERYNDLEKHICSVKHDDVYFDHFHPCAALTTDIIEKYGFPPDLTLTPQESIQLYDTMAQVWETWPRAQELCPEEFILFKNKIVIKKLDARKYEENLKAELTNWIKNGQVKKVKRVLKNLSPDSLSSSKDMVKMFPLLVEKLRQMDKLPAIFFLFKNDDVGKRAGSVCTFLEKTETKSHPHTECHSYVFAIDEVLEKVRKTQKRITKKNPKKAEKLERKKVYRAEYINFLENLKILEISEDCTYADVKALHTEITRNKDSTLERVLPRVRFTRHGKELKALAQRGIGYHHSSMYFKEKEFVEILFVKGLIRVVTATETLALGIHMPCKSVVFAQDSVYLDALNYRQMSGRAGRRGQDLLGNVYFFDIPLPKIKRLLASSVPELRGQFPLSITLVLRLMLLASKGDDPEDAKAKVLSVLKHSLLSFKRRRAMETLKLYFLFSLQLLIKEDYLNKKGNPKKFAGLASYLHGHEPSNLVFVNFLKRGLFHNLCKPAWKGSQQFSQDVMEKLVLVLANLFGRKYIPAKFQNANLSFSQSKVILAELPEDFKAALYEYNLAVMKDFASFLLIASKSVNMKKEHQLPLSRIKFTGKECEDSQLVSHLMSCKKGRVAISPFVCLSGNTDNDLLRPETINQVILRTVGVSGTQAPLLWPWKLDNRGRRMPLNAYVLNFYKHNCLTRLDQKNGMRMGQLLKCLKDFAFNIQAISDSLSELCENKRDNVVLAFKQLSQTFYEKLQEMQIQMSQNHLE
UniProt Q8N8Z6: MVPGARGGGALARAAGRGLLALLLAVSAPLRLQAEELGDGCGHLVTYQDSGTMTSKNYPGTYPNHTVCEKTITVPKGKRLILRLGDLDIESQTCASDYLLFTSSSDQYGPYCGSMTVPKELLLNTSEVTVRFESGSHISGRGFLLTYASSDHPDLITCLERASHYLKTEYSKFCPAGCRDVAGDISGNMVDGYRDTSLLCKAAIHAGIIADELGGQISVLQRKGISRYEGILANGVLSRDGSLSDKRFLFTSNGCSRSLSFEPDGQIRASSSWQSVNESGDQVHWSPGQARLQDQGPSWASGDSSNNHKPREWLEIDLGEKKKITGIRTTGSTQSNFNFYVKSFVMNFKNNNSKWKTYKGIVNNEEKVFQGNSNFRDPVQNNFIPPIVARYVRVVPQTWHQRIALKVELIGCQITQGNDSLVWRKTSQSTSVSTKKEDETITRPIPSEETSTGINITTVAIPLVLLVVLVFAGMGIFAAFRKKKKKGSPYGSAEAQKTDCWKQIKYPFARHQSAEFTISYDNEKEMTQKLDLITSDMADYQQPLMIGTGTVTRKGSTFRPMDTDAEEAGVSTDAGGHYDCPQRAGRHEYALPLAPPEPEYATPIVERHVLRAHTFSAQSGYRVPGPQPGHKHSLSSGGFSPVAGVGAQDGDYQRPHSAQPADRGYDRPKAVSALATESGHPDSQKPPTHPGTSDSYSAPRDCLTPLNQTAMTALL
UniProt Q8WV16: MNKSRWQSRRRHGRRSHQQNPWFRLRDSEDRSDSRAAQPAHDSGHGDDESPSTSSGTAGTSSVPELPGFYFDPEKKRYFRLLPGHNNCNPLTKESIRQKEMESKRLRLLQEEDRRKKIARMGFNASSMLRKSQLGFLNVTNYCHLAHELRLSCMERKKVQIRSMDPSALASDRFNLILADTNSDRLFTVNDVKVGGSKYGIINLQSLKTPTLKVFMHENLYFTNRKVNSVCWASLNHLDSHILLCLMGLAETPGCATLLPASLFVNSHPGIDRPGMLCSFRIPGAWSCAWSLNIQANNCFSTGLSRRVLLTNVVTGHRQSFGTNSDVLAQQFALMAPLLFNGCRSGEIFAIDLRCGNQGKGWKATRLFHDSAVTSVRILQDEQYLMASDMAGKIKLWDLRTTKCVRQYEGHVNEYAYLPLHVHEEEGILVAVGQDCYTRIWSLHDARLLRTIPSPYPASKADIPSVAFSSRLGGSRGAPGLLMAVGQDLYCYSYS

[2] = compound: CN1CCc2c(c3ccccc3n2Cc2ccc(C(=O)NO)cc2)C1 [Tubastatin A]
How it was run: as §1

[3] = compound: CNC(=O)C1=CC=CC=C1NC2=NC(=NC=C2Cl)NC3=C(C=C(C=C3)N4CCOCC4)OC
How it was run: as §1

[4] = compound: CNC(=O)c1ccc(Nc2ncc(C(F)(F)F)c(NCc3nccnc3N(C)S(C)(=O)=O)n2)cc1 [defactinib]
How it was run: as §1

[5] = compound: CNc1nc(-c2ccc3c(N)n[nH]c3c2)cc(N2C[C@@H](C(=O)NC3CCCCC3)CC[C@H]2C)n1
How it was run: as §1

[6] = compound: COC(=O)N[C@@H](C)CNc1nccc(-c2cn(C(C)C)nc2-c2cc(Cl)cc(NS(C)(=O)=O)c2F)n1 [encorafenib]
How it was run: as §1

[7] = compound: COC(=O)[C@H](CCSC)NC(=O)C1=C(C=C(C=C1)NC[C@H](CS)N)C2=CC=CC=C2
How it was run: as §1

[8] = compound: COc1cc(Nc2ncc3c(n2)-c2ccc(Cl)cc2C(c2c(F)cccc2OC)=NC3)ccc1C(=O)O [alisertib]
How it was run: as §1

[9] = compound: COc1cc2nc(-c3cc(F)ccc3O)nc(N[C@@H]3CNC[C@H]3C(C)(C)O)c2cc1OC
How it was run: as §1

[10] = compound: COc1cc2ncnc(Nc3ccc(F)c(Cl)c3)c2cc1OCCCN1CCOCC1 [gefitinib]
How it was run: as §1

[11] = compound: CS(=O)(=O)CCNCc1ccc(-c2ccc3ncnc(Nc4ccc(OCc5cccc(F)c5)c(Cl)c4)c3c2)o1 [lapatinib]
How it was run: as §1

[12] = compound: C[C@@H](Oc1cc(-c2cnn(C3CCNCC3)c2)cnc1N)c1c(Cl)ccc(F)c1Cl [crizotinib]
How it was run: as §1

[13] = compound: C[C@H](C1=CC=C(C=C1)C(=O)NC2=C3C=CNC3=NC=C2)N
How it was run: as §1

[14] = compound: C[C@H](Nc1ncnc2nc[nH]c12)c1cc2cccc(Cl)c2c(=O)n1-c1ccccc1 [duvelisib]
How it was run: as §1

[15] = compound: Cc1cc(Nc2cc(CN3CCOCC3)c3nc(C)c(Cc4ccc(Cl)cc4F)n3n2)n[nH]1 [gandotinib]
How it was run: as §1

[16] = compound: Cc1cc(Nc2cc(N3CCN(C)CC3)nc(Sc3ccc(NC(=O)C4CC4)cc3)n2)n[nH]1 [tozasertib]
How it was run: as §1

[17] = compound: Cc1ccc(-n2nc(C(C)(C)C)cc2NC(=O)Nc2ccc(OCCN3CCOCC3)c3ccccc23)cc1 [doramapimod]
How it was run: as §1

[18] = compound: Cc1cccc(CC(=O)N2CCc3c2ccc(-c2cn(C)c4ncnc(N)c24)c3F)n1
How it was run: as §1

[19] = compound: CS(=O)(=O)N1CCN(Cc2cc3nc(-c4cccc5[nH]ncc45)nc(N4CCOCC4)c3s2)CC1 [pictilisib]
How it was run: as §1

[20] = compound: Cc1ccc(NC(=O)c2ccc(CN3CC[C@H](N(C)C)C3)c(C(F)(F)F)c2)cc1Nc1nccc(-c2cncnc2)n1 [bafetinib]
How it was run: as §1

Measured: log2 fold change

DCTN1 isoform 4 (UniProt Q14203)
inactive: [1] 0.3 | [2] -0.254 | [3] 0.212 | [4] -0.046 | [5] 0.105 | [6] 0.078 | [7] -0.064 | [8] 0.107 | [9] -0.05 | [10] 0.051 | [11] -0.039 | [12] -0.031 | [13] 0.054 | [14] -0.032 | [15] 0.121 | [16] 0.173 | [17] -0.103 | [18] -0.239

DDR1 isoform 5 (UniProt Q08345)
active: [12] -0.712
inactive: [1] -0.034 | [2] 0.052 | [5] 0.147 | [6] 0.044 | [7] -0.094 | [8] 0 | [10] 0.046 | [19] -0.075 | [13] 0.097 | [14] -0.051 | [15] -0.305 | [20] 0.101 | [18] 0.007

DCAF12 (UniProt Q5T6F0)
inactive: [2] 0.058 | [3] 0.032 | [4] -0.006 | [5] 0.022 | [6] 0.07 | [7] 0 | [8] -0.107 | [10] 0.209 | [19] 0.032 | [12] -0.008 | [14] -0.056 | [16] 0.049 | [17] -0.065 | [20] 0.037

DCUN1D1 (UniProt C9JVE2)
inactive: [2] 0.061 | [3] -0.097 | [5] 0.254 | [6] -0.149 | [7] -0.004 | [9] 0.082 | [11] -0.028 | [19] -0.178 | [12] -0.307 | [14] 0.057 | [16] -0.285 | [17] 0.004 | [20] 0.036

DCAF5 (UniProt Q96JK2)
inactive: [4] 0.286 | [5] 0.064 | [12] -0.031 | [14] -0.037 | [17] 0.009

DDX60L (UniProt Q5H9U9)
inactive: [5] 0.021 | [9] -0.012 | [11] 0.075 | [14] 0.121

DCBLD1 (UniProt Q8N8Z6)
inactive: [1] 0.045 | [5] -0.443 | [6] -0.232 | [7] 0.059 | [9] 0.141 | [11] 0.175 | [13] -0.102 | [14] -0.06 | [15] -0.022 | [16] 0.042 | [18] 0.062

DCAF4 (UniProt Q8WV16)
inactive: [1] 0.036 | [5] -0.029 | [6] 0.004 | [7] 0.011 | [8] -0.245 | [9] 0.254 | [10] -0.104 | [11] -0.004 | [19] -0.032 | [12] -0.153 | [13] -0.056 | [14] -0.016 | [15] 0.083 | [16] 0.095 | [17] 0.082 | [20] 0.202 | [18] 0.255

— the supplement of paper PMC10849652
